# Results taken from PMC5931534.
# Chains of the proteins cited; added tags and fusions are not shown. Lines headed by an entry give the natural chain unless they say otherwise; changes in a name come on top.
# UniProt Q6ZNE5: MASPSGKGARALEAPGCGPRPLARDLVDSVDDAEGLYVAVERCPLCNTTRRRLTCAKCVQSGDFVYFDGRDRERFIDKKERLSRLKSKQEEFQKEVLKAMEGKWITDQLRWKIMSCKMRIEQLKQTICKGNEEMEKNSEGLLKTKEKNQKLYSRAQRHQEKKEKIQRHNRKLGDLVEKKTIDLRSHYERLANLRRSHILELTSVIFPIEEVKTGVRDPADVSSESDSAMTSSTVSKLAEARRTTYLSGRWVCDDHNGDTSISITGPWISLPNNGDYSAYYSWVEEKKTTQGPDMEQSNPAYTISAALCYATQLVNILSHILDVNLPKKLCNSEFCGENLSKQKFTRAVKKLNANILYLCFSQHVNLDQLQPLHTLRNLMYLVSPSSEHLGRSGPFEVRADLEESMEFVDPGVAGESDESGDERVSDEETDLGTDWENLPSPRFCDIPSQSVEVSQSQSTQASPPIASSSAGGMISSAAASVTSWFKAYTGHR
# UniProt Q9UIK4: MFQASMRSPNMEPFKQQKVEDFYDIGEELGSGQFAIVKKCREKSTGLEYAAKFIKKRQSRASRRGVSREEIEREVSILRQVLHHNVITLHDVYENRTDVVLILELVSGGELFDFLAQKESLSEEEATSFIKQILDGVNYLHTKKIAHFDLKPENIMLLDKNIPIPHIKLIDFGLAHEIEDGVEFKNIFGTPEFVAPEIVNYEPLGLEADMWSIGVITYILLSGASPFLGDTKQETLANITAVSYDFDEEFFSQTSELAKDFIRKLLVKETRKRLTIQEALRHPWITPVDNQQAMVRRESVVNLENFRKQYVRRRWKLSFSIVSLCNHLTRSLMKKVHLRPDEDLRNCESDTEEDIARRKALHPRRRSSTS
# No constants are given. Whether binding was seen depends on the method and setting. For part of these data: Binding seen in cells or lysates may run through a third protein. Some entries that bind do so weakly or less than the wild type.
# Columns and labels:
# Atg14-HA = Atg14-HA (UniProt Q6ZNE5); experiment: co-IP; HEK293T cells transfected with Atg14-HA (or empty vector) and FLAG-DAPK2; anti-HA immunoprecipitates resolved by SDS-PAGE and blotted
# FLAG-DAPK2 WT = FLAG-DAPK2 WT (UniProt Q9UIK4); experiment: SDS-resistant dimer band on SDS-PAGE; FLAG-DAPK2 overexpressed in HEK293T cells; anti-FLAG immunoprecipitate stained with GelCode Blue, or lysate blotted with anti-FLAG; dimer band around 90 kDa
# [1] = target: L1 and L2-fused DAPK2 WT (human (cDNA library from HEK293 cells)) (UniProt Q9UIK4); experiment: split reporter; Protein Complementation Assay: Gaussia luciferase fragments L1 (amino acids 1-93) and L2 (94-169) fused to the two proteins, transfected in pairs into HEK293T cells; cells lysed and luminescence measured
binding (Atg14-HA),binding (FLAG-DAPK2 WT),binding [1],Substance
binds,binds,,FLAG-DAPK2 WT (from UniProt Q9UIK4-1 1-370) (enzyme)
,,binds,L1 and L2-fused DAPK2 WT (from UniProt Q9UIK4-1 1-370) (enzyme)
